No constants are given. Whether binding was seen depends on the method and setting. In cells and extracts the contact can be indirect. Some binding calls cover weakened binding; strength is not graded here. Sequences can lack the tags named with a protein.
Experiments:
[1] = target: AKT1 kinase domain-GFP (KD-GFP) (UniProt P31749); test: co-IP; HA-CYPJ and PH/KD/RD-GFP plasmids co-transfected into 293T cells; IP with anti-GFP antibody; Western blot
Flag-AKT1 = Flag-AKT1 (UniProt P31749); test: co-IP; HA-CYPJ and Flag-AKT1/2 plasmids co-transfected into 293T cells; IP with anti-Flag on Protein A/G magnetic beads, overnight at 4 °C; Western blot

Sequences of proteins named here, by UniProt entry; tags and fusion partners are left off. A change or cut given only in a name is not applied to a line headed by its entry. Residues count along the entry.
UniProt P31749: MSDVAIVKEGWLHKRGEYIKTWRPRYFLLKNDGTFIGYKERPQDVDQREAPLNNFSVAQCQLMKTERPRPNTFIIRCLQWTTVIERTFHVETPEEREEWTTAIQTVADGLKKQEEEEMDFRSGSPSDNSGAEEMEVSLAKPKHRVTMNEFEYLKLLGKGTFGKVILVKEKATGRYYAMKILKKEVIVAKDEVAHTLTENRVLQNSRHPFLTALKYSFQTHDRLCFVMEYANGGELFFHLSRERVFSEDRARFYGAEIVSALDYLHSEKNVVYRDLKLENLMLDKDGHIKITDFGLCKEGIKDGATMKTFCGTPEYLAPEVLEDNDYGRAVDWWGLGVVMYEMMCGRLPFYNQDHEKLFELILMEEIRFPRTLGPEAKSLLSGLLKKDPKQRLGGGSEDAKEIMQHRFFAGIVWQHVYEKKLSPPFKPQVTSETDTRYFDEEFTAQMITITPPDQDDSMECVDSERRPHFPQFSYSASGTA
AKT1 kinase domain-GFP (KD-GFP): residues 150-408 of P31749

binding [1]: binds | binding (Flag-AKT1): binds
B1: HA-CYPJ (cyclophilin J) (protein, UniProt Q9H2H8 1-161)
chain: MSVTLHTDVGDIKIEVFCERTPKTCENFLALCASNYYNGCIFHRNIKGFMVQTGDPTGTGRGGNSIWGKKFEDEYSEYLKHNVRGVVSMANNGPNTNGSQFFITYGKQPHLDMKYTVFGKVIDGLETLDELEKLPVNEKTYRPLNDVHIKDITIHANPFAQ

— article PMC12160919
